No constants are given. Whether binding was seen depends on the method and setting.

The target in this assay is MUC1. In words: ELISA, antibody fixed at 1 ug/ml, coated antigen titrated, absorbance 450 nm. (In general: ELISA stands for enzyme-linked immunosorbent assay.)

B1: 4C8 monoclonal antibody (antibody, V domains shown)
VH: QVQLQQPGSELVRPGASVKLSCKASGYTFTSYWMHWVKQRPGQGLEWIGNIYPRSGTTNYDGYFKSKATLTVDTSSSTAYMQLSSLTSEDSAVYFCTRSGYDYPFVYWGQGTLVTVSA
VL: QAVVTQESALTTSPGETVTLTCRTSTGAVSIRNYANWVQEKPDHLFTGLIGGTNNRAPGVPARFSGSLIGDKAALTITGAQPEDEAIYFCALLYSNYWVFGGGTKLTVL
notes: Murine hybridoma antibody; also called 4C8 mAb; mAb 4C8
For the molecule B1, the binding result is “no binding (tested: 1000 ug/ml)”.

Values taken from patent US20250326855A1 (GO THERAPEUTICS, published 2025).
